Laboratory results published in the supplement of paper PMC5949888.
Most values lie at the floor of the assay. Slopes are relative: functional sequences can read slightly below zero.

system: Saccharomyces cerevisiae PS128 hsf1 delta, HSF1(1-493) fusion; experiment: growth estimate (transactivation domain function in HSF1 fusion, heat-shock survival) (a.u. (slope of normalised read count over time)); higher = stronger growth at 37°C, i.e. more transactivation activity; conditions: library: random library

| Substance | growth estimate |
| --- | --- |
| MLSPPVSGFYGIGRGDSLT | < -0.25 |
| MLSRYL | < -0.25 |
| MLTCSRGLSLNLFTPTINKS | < -0.25 |
| MLTDTGDVSDPNRPHVKPQR | < -0.25 |
| MLTNIPVIVLWARGGGAESI | < -0.25 |
| MLTTIREPSLG | < -0.25 |
| MLVRLLSLSQSR | < -0.25 |
| MLWSHPRCQSNKVCMHYALG | -0.243 |
| MLYGWVRHPYRRWLRLQRRL | < -0.25 |
| MMVGPD | < -0.25 |
| MNGMPSDVRRRNLQGP | < -0.25 |
| MNHSW | < -0.25 |
| MNILGDGASAINDVLSYSVT | < -0.25 |
| MNMD | < -0.25 |
| MNTSAGDSG | < -0.25 |
| MNV | < -0.25 |
| MPESVSGFVGGTGSVGATVP | < -0.25 |
| MPQCL | < -0.25 |
| MPRLVL | < -0.25 |
| MPSFCYWTCSGLGTRLIRFV | < -0.25 |
| MPSKGFYI | < -0.25 |
| MPSKLAPIRA | < -0.25 |
| MPTDITSRRIALSNEVAIPC | < -0.25 |
| MPTLLPTGMNLKSGGSAGIR | < -0.25 |
| MPVVLVNSETLSCQYGRVIA | < -0.25 |

| Substance | growth estimate |
| --- | --- |
| MQSMRSTTNTK | < -0.25 |
| MQYWRLDN | < -0.25 |
| MRDATERGDRGNT | < -0.25 |
| MRDGGSLVQRVVCSTSTPGS | < -0.25 |
| MRDVSEQVEGWGIRSFPFRR | < -0.25 |
| MRGTMVRGNNIRG | < -0.25 |
| MRLRAGWSGGVAINLDV | < -0.25 |
| MRMFPPMN | < -0.25 |
| MRPYSARRRLLTGKPRPPVR | < -0.25 |
| MRRVRLI | < -0.25 |
| MRSIDREATVHIWARSLDKT | -0.246 |
| MRSVAIRLGEHNYEKRRAGH | < -0.25 |
| MRTSLVRDRL | < -0.25 |
| MRVCFLSKWRG | < -0.25 |
| MRVRTQPRERQHHEPVLDSA | < -0.25 |
| MRYVGPVRASLERKDCV | < -0.25 |
| MSERRVMTQIKSL | < -0.25 |
| MSPAQFIARMIGLPCYPNRA | < -0.25 |
| MSQ | < -0.25 |
| MSRASIHEPNGICCRSDSAV | < -0.25 |
| MSRGSLSTRKWYCGGPKISV | -0.245 |
| MSRKPVIYSCTRGQD | < -0.25 |
| MSSDKDGERYFC | < -0.25 |
| MSSTRPLALGYNQSSMVVYP | < -0.25 |
| MSWGKP | < -0.25 |

| Substance | growth estimate |
| --- | --- |
| MSWYGSLLRR | < -0.25 |
| MTAMSNPN | < -0.25 |
| MTDISSDGSRFCTRMPRKAT | < -0.25 |
| MTG | < -0.25 |
| MTLA | < -0.25 |
| MTLDTLGRAVEGRLGRRCTF | < -0.25 |
| MTMAGVCTQRLPGSSRSGLV | < -0.25 |
| MTRHSNLNELSDTLTVPISF | -0.231 |
| MVAAFAVARFVTSSRDTLIR | < -0.25 |
| MVDGG | < -0.25 |
| MVIPGTIRP | < -0.25 |
| MVMSCSSHSTCQLTGAL | < -0.25 |
| MVPYGDF | < -0.25 |
| MVQIDCGMKGDLGRH | < -0.25 |
| MVQYILRAK | < -0.25 |
| MVRGFKTFSLGQTCALQLVP | < -0.25 |
| MVRNGYGPIPREILIMSRVQ | < -0.25 |
| MVVR | < -0.25 |
| MVVYKASVCDFCQIHTRSGP | < -0.25 |
| MVWLWDPTRGLLLAWRHARR | < -0.25 |
| MWI | < -0.25 |
| MWLGRERALPEASQSA | < -0.25 |
| MWLS | < -0.25 |
| MWSPTRGQ | < -0.25 |
| MWVPGTGRAWDTLQPVVNGS | < -0.25 |

| Substance | growth estimate |
| --- | --- |
| MWYSLWDLGLLQ | -0.246 |
| MYDSLLRSRIRITVVARSRD | < -0.25 |
| MYGPPTSHLVR | < -0.25 |
| MYIRQDRAAS | < -0.25 |
| MYPPRGVSFVYLALGRDSCY | < -0.25 |
| MYQRSLMSLCKVCVQGGQPC | < -0.25 |
| MYTGAFCVWPCKCHPN | < -0.25 |
| MYWASYSVLTTPAKQLARVP | < -0.25 |
| NAAIAAVTATQGMTVRYGTL | < -0.25 |
| NACLTPPSSR | < -0.25 |
| NAGLNR | < -0.25 |
| NAIGTGLNTVGPSRV | < -0.25 |
| NAKFSAELLLRKLKVARLHL | < -0.25 |
| NAKHFSRRLDTIWASRVLWP | < -0.25 |
| NANIQERHHKLDRTTPPDRA | < -0.25 |
| NASNYSTERRGCVRPHKVGR | < -0.251 |
| NASYIIRRPQHRQLVQAGAP | < -0.25 |
| NCEGYHINRSSFVNQPVHRN | < -0.25 |
| NCELADFETTDRIQQLLSI | < -0.25 |
| NCHRTRAPGRSVIDQNRTMY | < -0.25 |
| NCHSLHVLVHLRRRQEVAPG | < -0.25 |
| NCQVGAFLLKGSIGSCSSVA | < -0.25 |
| NCRLGARGVPGGEGVSFLEE | < -0.25 |
| NCWIR | < -0.25 |
| NDDGERWWCHLVIRQWCRSL | < -0.25 |

| Substance | growth estimate |
| --- | --- |
| NDGMRHGYHAICRGFNLLIN | < -0.25 |
| NDKAYACSSAHRVVFTVEPP | < -0.25 |
| NDMCFDSWST | < -0.25 |
| NDNSRSDYASDVADVRNRPT | < -0.25 |
| NDSFTLPYSLRITILEIRDR | -0.241 |
| NDSLT | < -0.25 |
| NDTAGTCGCYEGGRSAVFFA | < -0.25 |
| NDVLI | 0.0846 |
| NEAAVLRNFWGIPGYVLSPP | < -0.25 |
| NEAPERSCWAITRSWVSNSR | < -0.25 |
| NEEEHRSDHGALVYLADIGW | < -0.25 |
| NEGRGAT | < -0.25 |
| NEHVGTGILCLRGTGFSSVT | < -0.25 |
| NEKGACTAQVGLQLLRDVVQ | < -0.25 |
| NENEVILSNVVRGTGTHTGA | < -0.25 |
| NETKELRMAQCCQQQVDRTR | < -0.25 |
| NEYMAEGWLGKT | < -0.25 |
| NFAQAILSLISYGLQQAPVL | < -0.25 |
| NFASTRSGKLPRHYSERRRV | < -0.25 |
| NFCLCQCLEHCERFR | < -0.25 |
| NFFALPRYAARLRRSRWI | < -0.25 |
| NFG | < -0.25 |
| NFGGTSAVRASRYGRIQSWA | < -0.25 |
| NFINSAS | < -0.25 |
| NFQIHFRIVIIYMFYHPVRT | < -0.253 |

| Substance | growth estimate |
| --- | --- |
| NFSCFGGEF | < -0.25 |
| NFSDVTGTQAWGGRLVPRQC | < -0.25 |
| NFTGGVCSSAPLTGPIVESV | < -0.25 |
| NFTLGSSPSNSPYSWGNQ | < -0.25 |
| NGAMTTKSRKRARYCPLKRQ | < -0.25 |
| NGASANMFWDTWVYSKPLSP | 0.0801 |
| NGCLPGRMTFF | < -0.25 |
| NGDRIWGGCRNSAITVVQGT | < -0.25 |
| NGDVRGGRVSLF | < -0.25 |
| NGEL | < -0.25 |
| NGGIPHERGHPPVVLEGLFL | < -0.25 |
| NGGNK | < -0.25 |
| NGGYGAGTPGYACVQYLRII | < -0.25 |
| NGHFTE | < -0.25 |
| NGHMDSNDSSAGWLPFSKRV | < -0.25 |
| NGHVKKPFVYNIQGAVLAAV | < -0.25 |
| NGIFSYGFTVGETSHSETR | < -0.25 |
| NGIHVSVEYRAGRASFVSAT | < -0.25 |
| NGKRRH | < -0.25 |
| NGKVLRLIYFLVDRGHPSCR | < -0.25 |
| NGLWCTGSF | < -0.25 |
| NGNMRGDRRSVATT | < -0.25 |
| NGTRAALIGLWYRFHSDAQG | < -0.25 |
| NGVKEVLASVE | < -0.25 |
| NHARRRAVILPLPADHQTTD | < -0.25 |

| Substance | growth estimate |
| --- | --- |
| NHCFTKKWGI | < -0.25 |
| NHFI | < -0.25 |
| NHPLSGKSTRSLACTPGWYG | < -0.25 |
| NHRRRFKLGGATGELCSERA | < -0.25 |
| NIAGALLAT | < -0.25 |
| NIDGAHA | < -0.25 |
| NIEGTTWAVVCSAVRSRSEK | < -0.25 |
| NIGALVVGQI | < -0.25 |
| NIHA | < -0.25 |
| NIKTPDLAHCI | < -0.25 |
| NILG | < -0.25 |
| NISSSTLKGSMIARIRSFCE | < -0.25 |
| NITTMRMVVMRIKP | < -0.25 |
| NIVISVSVDINPVLRLAVGP | < -0.25 |
| NIVNGFATCIAVSGL | < -0.25 |
| NIYRRSFHHYQSNGACWLVG | -0.246 |
| NKAATFMISIVYVISSNVWR | < -0.25 |
| NKALSTETAVAKIWTERRGN | < -0.25 |
| NKFGLQHCSGS | < -0.25 |
| NKGPLIHQISYEHSRLSMAR | < -0.25 |
| NKGRCGQRIAHFITTVVIR | < -0.25 |
| NKPRMGGSRRDARNAFVRLS | -0.246 |
| NKR | < -0.25 |
| NKSA | < -0.25 |
| NKSNTFTMWSCPSCLN | < -0.25 |

Reformatted: results already given.
NIAGALLAT
  growth estimate: < -0.25
NIEGTTWAVVCSAVRSRSEK
  growth estimate: < -0.25

Following part:

| Substance | growth estimate |
| --- | --- |
| NKVLVKIARFSSHV | < -0.25 |
| NKYLGSSRFEIGLGSPGNGI | < -0.25 |
| NLAHQR | < -0.25 |
| NLATRAWEPSRGVRQHRFYY | < -0.25 |
| NLC | < -0.25 |
| NLCKGCALYGRPLKVSAPPP | < -0.25 |
| NLFCHLRSESDP | < -0.25 |
| NLFI | < -0.25 |
| NLFTSASPHEYGVR | < -0.25 |
| NLGQGDVQVGVGIAARLNAP | < -0.25 |
| NLHRLEVEHFILTSQKSFNG | < -0.25 |
| NLILVQPPRARAR | < -0.25 |
| NLIRE | < -0.25 |
| NLLAERKWI | < -0.25 |
| NLLCTTPRATYHCSY | < -0.25 |
| NLLIMDRSITHRHPPILPMP | < -0.25 |
| NLLLFKRDPVQRKLRCG | < -0.25 |
| NLLRDDSAERSQPRQFWTVR | -0.234 |
| NLNEQQSMNGTLASCR | < -0.25 |
| NLNNT | < -0.25 |
| NLPQSRLNLLAVSYLTVVGR | < -0.25 |
| NLRGCGINLCIGERKSVDSW | < -0.25 |
| NLRNLFRKE | < -0.25 |

Nothing new here: an excerpt of the list.

| Substance | growth estimate |
| --- | --- |
| NLPQSRLNLLAVSYLTVVGR | < -0.25 |
| NLRGCGINLCIGERKSVDSW | < -0.25 |
